According to PubChem BioAssay AID192 (DTP/NCI, 2004):
The list shows only some results of the screen, not a fair sample: it gathers some chemical classes. Other doses and runs of a compound may be missing. T/C: endpoint of the treated group in % of that of the vehicle group. For survival time, this PubChem deposit counts one and a half times the control or more as active, and values a quarter to a half above the control carry no call in these data; other NCI protocols may use other cut-offs. Schedules are NCI's codes, taken here to give the interval after Q, in days (D) or hours (H), and the number of doses after X. Some T/C values are marked as having no survivor count here; that says nothing about deaths at the dose. Some entries hold several experiments; the values are given in rising order.

System: BDF1 mice, B16 melanoma ip, median survival T/C
Assay: NCI In Vivo Anticancer Drug Screen. Data for tumor model B16 Melanoma (intraperitoneal) in B6D2F1 (BDF1) mice
Conditions: T/C endpoint: median survival time, higher T/C = longer survival
Protocol: The antitumor activity of compounds was measured in mice bearing transplantable tumors. Survival or tumor size were measured and the results are expressed as the measurement made in the treated group (T) divided by the measurement made in the vehicle treated control group (C). The tumor model used in this assay is B16 Melanoma (intraperitoneal) in B6D2F1 (BDF1) mice

CC(=O)OC[C@]12C[C@H](OC(=O)CC(C)C)C(C)=C[C@H]1OC1[C@H](O)[C@@H](OC(C)=O)[C@@]2(C)[C@@]12CO2
T/C (dose: 0.12 mg/kg/injection, schedule: Q01DX009 (ip), vehicle: saline): 152 % of control [survivor count not shown]
T/C (dose: 0.25 mg/kg/injection, schedule: Q01DX009 (ip), vehicle: saline): 149 % of control [survivor count not shown]
T/C (dose: 0.32 mg/kg/injection, schedule: Q01DX009 (ip), vehicle: Klucel (hydroxypropylcellulose) (HPC)): 128 % of control [survivor count not shown]
T/C (dose: 0.38 mg/kg/injection, schedule: Q04DX003 (ip), vehicle: other): 107 % of control [survivor count not shown]
T/C (dose: 0.5 mg/kg/injection, schedule: Q01DX009 (ip), vehicle: saline): 150 % of control [survivor count not shown]
T/C (dose: 0.63 mg/kg/injection, schedule: Q01DX009 (ip), vehicle: Klucel (hydroxypropylcellulose) (HPC)): 148 % of control [survivor count not shown]
T/C (dose: 0.75 mg/kg/injection, schedule: Q04DX003 (ip), vehicle: other): 111 % of control [survivor count not shown]
T/C (dose: 1.0 mg/kg/injection, schedule: Q01DX009 (ip), vehicle: saline): 149 % of control [survivor count not shown]
T/C (dose: 1.08 mg/kg/injection, schedule: Q04DX003 (ip), vehicle: saline + alcohol): 114 % of control [survivor count not shown]
T/C (dose: 1.25 mg/kg/injection, schedule: Q01DX009 (ip), vehicle: Klucel (hydroxypropylcellulose) (HPC)): 141 % of control [survivor count not shown]
T/C (dose: 1.5 mg/kg/injection, schedule: Q04DX003 (ip), vehicle: other): 116 % of control [survivor count not shown]
T/C (dose: 1.8 mg/kg/injection, schedule: Q04DX003 (ip), vehicle: saline + alcohol): 116 % of control [survivor count not shown]
T/C (dose: 2.0 mg/kg/injection, schedule: Q01DX009 (ip), vehicle: saline): 156 % of control [survivor count not shown]
T/C (dose: 3.0 mg/kg/injection, schedule: Q04DX003 (ip), vehicle: other): 107 % of control [survivor count not shown]
T/C (dose: 3.0 mg/kg/injection, schedule: Q04DX003 (ip), vehicle: saline + alcohol): 116 % of control [survivor count not shown]
T/C (dose: 648.0 micrograms/kg/injection, schedule: Q04DX003 (ip), vehicle: saline + alcohol): 115 % of control [survivor count not shown]
T/C (dose: 648.0 micrograms/kg/injection, schedule: Q04DX003 (sc), vehicle: saline + alcohol): 115 % of control [survivor count not shown]
T/C (dose: 1080.0 micrograms/kg/injection, schedule: Q04DX003 (ip), vehicle: saline + alcohol): 111 % of control [survivor count not shown]
T/C (dose: 1080.0 micrograms/kg/injection, schedule: Q04DX003 (sc), vehicle: saline + alcohol): 109 % of control [survivor count not shown]
T/C (dose: 1800.0 micrograms/kg/injection, schedule: Q04DX003 (ip), vehicle: saline + alcohol): 103 % of control [survivor count not shown]
T/C (dose: 1800.0 micrograms/kg/injection, schedule: Q04DX003 (sc), vehicle: saline + alcohol): 114 % of control [survivor count not shown]
T/C (dose: 3000.0 micrograms/kg/injection, schedule: Q04DX003 (ip), vehicle: saline + alcohol): 110 % of control [survivor count not shown]
T/C (dose: 3000.0 micrograms/kg/injection, schedule: Q04DX003 (sc), vehicle: saline + alcohol): 129 % of control [survivor count not shown]

CC1=CC2OC3CC4OC(=O)/C=C/C=C/C(C(C)O)OCC/C(C)=C/C(=O)OCC2(CC1)C4(C)C31CO1 (centres undefined)
T/C (dose: 0.39 mg/kg/injection, schedule: Q01DX009 (ip), vehicle: suspension in saline): 106 % of control [survivor count not shown]
T/C (dose: 0.78 mg/kg/injection, schedule: Q01DX009 (ip), vehicle: saline with Tween-80): 141 [survivor count not shown] and 190 % of control [survivor count not shown]
T/C (dose: 0.78 mg/kg/injection, schedule: Q01DX009 (ip), vehicle: suspension in saline): 126 % of control [survivor count not shown]
T/C (dose: 1.56 mg/kg/injection, schedule: Q01DX009 (ip), vehicle: saline with Tween-80): 157 % of control [survivor count not shown]
T/C (dose: 3.12 mg/kg/injection, schedule: Q01DX009 (ip), vehicle: saline with Tween-80): 269 % of control [survivor count not shown]
T/C (dose: 3.12 mg/kg/injection, schedule: Q01DX009 (ip), vehicle: suspension in saline): 103 % of control [survivor count not shown]
T/C (dose: 6.25 mg/kg/injection, schedule: Q01DX009 (ip), vehicle: suspension in saline): 126 % of control [survivor count not shown]

CC(=O)OC[C@]12C[C@H](OC(=O)CC(C)C)C(C)=C[C@H]1O[C@@H]1[C@H](O)[C@@H](O)[C@@]2(C)[C@@]12CO2
T/C (dose: 0.25 mg/kg/injection, schedule: Q01DX009 (ip), vehicle: saline, evaluated on day 50): 136 % of control [survivor count not shown]
T/C (dose: 0.25 mg/kg/injection, schedule: Q01DX009 (ip), vehicle: saline, evaluated on day 60): 113 % of control [survivor count not shown]
T/C (dose: 0.5 mg/kg/injection, schedule: Q01DX009 (ip), vehicle: saline, evaluated on day 50): 141 % of control [survivor count not shown]
T/C (dose: 0.5 mg/kg/injection, schedule: Q01DX009 (ip), vehicle: saline, evaluated on day 60): 137 [survivor count not shown] and 142 % of control [survivor count not shown]
T/C (dose: 1.0 mg/kg/injection, schedule: Q01DX009 (ip), vehicle: saline, evaluated on day 50): 139 % of control [survivor count not shown]
T/C (dose: 1.0 mg/kg/injection, schedule: Q01DX009 (ip), vehicle: saline, evaluated on day 60): 115 [survivor count not shown], 134 [survivor count not shown], 156 % of control [survivor count not shown]
T/C (dose: 2.0 mg/kg/injection, schedule: Q01DX009 (ip), vehicle: saline, evaluated on day 50): 136 % of control [survivor count not shown]
T/C (dose: 2.0 mg/kg/injection, schedule: Q01DX009 (ip), vehicle: saline, evaluated on day 60): 142 [survivor count not shown] and 152 % of control [survivor count not shown]
T/C (dose: 4.0 mg/kg/injection, schedule: Q01DX009 (ip), vehicle: saline): 133 % of control [survivor count not shown]
